# Experimental data: patent US20240165114A1, “TREATMENT OF DIABETIC NEPHROPATHY WITH AN sGC STIMULATOR” (Cyclerion Therapeutics, Inc., priority 2019, published 2024)
# System: adult patients with type 2 diabetes mellitus with albuminuria
# Experiment: Mediation analysis of UACR effect through blood pressure change
# Format: in vivo, human
# Method: From mediation analyses, it was determined that for the mITT Population, only 4 to 17% of the total effect of treatment on change in UACR is mediated through change in systolic blood pressure. Similarly, for the ITT Population, only 8 to 25% of the total UACR change is mediated through change in systolic blood pressure. When using Week 12 trough cuff systolic blood pressure as the mediator, a more common but less comprehensive blood pressure measure, only 3% of the total UACR change is mediated through change in SBP.
structure (smiles),measurement,setting,value
"OC(CNc1nc(-c2cc(-c3ccon3)n(Cc3ccccc3F)n2)ncc1F)(C(F)(F)F)C(F)(F)F [Compound I, praliciguat]",share of total UACR change mediated through change in SBP,Week 12 trough cuff systolic blood pressure as the mediator,3%
same,share of the effect on UACR independent of blood pressure changes,"mediation analysis, ITT",⅔
